{
  "source": "patent US20080058271A1",
  "about": "“Prevention of primary sjogren' s Syndrome by ICA69 deficiency” (priority 2002, published 2008)",
  "key": {"NOD pSS": {"system": "NOD pSS", "assay": "Recovery of salivary secretory function and pathohistology after ABBOS peptide-based vaccine", "format": "in vivo, mouse"}, "[1]": {"system": "NOD spleen cells (Tep69/ABBOS-specific T cell pools)", "assay": "Splenic T cell proliferative recall responses after ABBOS immunotherapy", "format": "cell-based, mouse"}, "NOD lymph node cells": {"system": "NOD lymph node cells", "assay": "T cell proliferative responses in draining lymph node cells", "format": "cell-based, mouse", "settings": "10 week old NOD females, pooled lymph node cells", "description": "FIG. 2. T cell proliferative responses to ICA69, its dominant epitope, Tep69, BSA, and its dominant NOD mouse epitope, ABBOS, were measured in lymph nodes draining the pancreas (A), and submandibular glands (B), or lymph nodes draining the lower (C) or upper (D) extremities. Gray columns: control cultures stimulated with ovalbumin (OVA) or Medium (MED) only. To obtain sufficient cell numbers, lymph node cells were pooled from seven mice. One of three similar data sets is shown.\nNOD lymph-node, spleen and human peripheral blood T cell responses were measured with three slightly different protocols. Draining lymph node cells from 10 week old NOD females were pooled. 2×10^5 lymph node cells along with 2×10^5 irradiated (1100 rad) syngeneic spleen cells were cultured in serum-free AIM-V media (Life Technologies, Mississauga, Ontario, Canada) in the presence of protein or peptide antigen. […]\nThis phenotype could reflect a role for ICA69 as an autoantigen or a role for ICA69 protein-function. To begin an analysis of these two alternatives, we measured T cell autoreactivity to ICA69 and its immunodominant T cell epitope, Tep69, in 10 week old NOD females. Proliferative in vitro recall responses were assessed in draining lymph nodes from various tissues, in order to localize where T cell tolerance to ICA69 was lost. […]"}, "MHC class II": {"system": "MHC class II", "settings": "reference 21; cited from earlier work"}},
  "note": "Not every detail of the peptide structures is certain; ends, links or a residue may be inferred. Ends that are not written are not given here.",
  "data": [
    {"sequence": "FKADEKKFWGKYLYE [ABBOS, FKADEKKFWGKYLYE]", "values": [
      {"measurement": "effectiveness in NOD pSS judged by pathohistology (scoring of infiltrative foci)", "setting": "NOD pSS; mouse, in vivo", "result": "effective"},
      {"measurement": "secretory function", "setting": "NOD pSS; p=0.002 ABBOS vs. control treatments", "result": "recovery of secretory function"},
      {"measurement": "Tep69 and ABBOS proliferative responses in ABBOS treated animals not protected from disease", "setting": "[1]; n=6, includes mice with moderate disease exacerbation", "result": "observed"},
      {"measurement": "splenic T cell responses to Tep69 in ABBOS treated mice protected from sialoadenitis", "setting": "[1]; n=11, 5, 10 and 15 weeks following treatment", "result": "greatly reduced"},
      {"measurement": "T cell proliferative responses in pancreatic and submandibular lymph node cells", "setting": "NOD lymph node cells", "result": "observed"},
      {"measurement": "MHC class II affinity", "setting": "MHC class II", "result": "high"}
    ]}
  ]
}
